Values from PubChem BioAssay AID1053208 (Peter MacCallum Cancer Centre, 2014)
The whole screen tested about 17,000 reagents; below is a part drawn at random. Of all reagents, 788 (4.7%) are marked active. 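Calls rest on z-score classes alone; an extra cut-off of viability at most 70% of control was not applied to them.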 A number with no mark means an inactive call. A reagent listed more than once was tested more than once; the source does not tell the runs apart. No sequences are given here.

- Assay: 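Synthetic lethal interactions between gene loss and doxorubicin in osteosarcoma cells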 (primary screen)
- System: mouse osteosarcoma cells, early-passage culture from an engineered mouse model of fibroblastic bone tumour
- Reagents: siRNA pool against mouse genes, 40 nM
- Duration: about 120 h (48 h before drug, then 72 h with drug)
- Challenge: doxorubicin 100 nM for 72 h, roughly 30-40% inhibitory dose
- Detection: 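Viability read as ATP luminescence after 72 h of 100 nM doxorubicin or none, duplicate wells averaged, scaled to non-targeting siRNA, then expressed as robust z-scores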
- Scale: viability z-score with doxorubicin and doxorubicin viability vs non-targeting: higher = more viable cells under doxorubicin; viability z-score without drug: higher = more viable cells with knock-down alone; z-score of drug to no-drug ratio: higher = less drug sensitisation by knock-down
- Call rule: 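Called active if knock-down leaves viability unchanged without drug (z within -2 to 2) but lowers it with doxorubicin (z at or under -2)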

gene symbol | combined z-score class | viability z-score with doxorubicin | viability z-score without drug | z-score of drug to no-drug ratio | doxorubicin viability vs non-targeting
Aldh1l2 | no change with or without drug | 0.11 | 1.01 | -0.45 | 0.95
Cttn | no change with or without drug | 0.22 | -1.18 | 1.24 | 0.96
Rab10os | no change with or without drug | -1.35 | -1.18 | -0.56 | 0.82
Dgat1 | no change with or without drug | 1.24 | -0.84 | 2.14 | 1.05
Elovl4 | no change with or without drug | 0 | 0.17 | 0 | 0.94
Bzw2 | no change with or without drug | 0.67 | -0.17 | 0.9 | 1
Or11g1 | no change with or without drug | 1.24 | 1.69 | 0.22 | 1.05
Or4k48 | no change with or without drug | -0.56 | -1.18 | 0.34 | 0.89
Tex13c3 | no change with or without drug | 1.12 | 0.67 | 0.79 | 1.04
Nr1h5 | no change with or without drug | 0.34 | 0 | 0.45 | 0.97
Or2at4 | no change with or without drug | 0 | 0.84 | -0.45 | 0.94
Nme1 | no change with or without drug | -0.11 | 0 | 0 | 0.93
Vps72 | no change with or without drug | 1.12 | 1.01 | 0.56 | 1.04
Miip | no change with or without drug | -1.35 | 1.18 | -2.02 | 0.82
Txnrd3 | no change with or without drug | -1.12 | -0.84 | -0.56 | 0.84
Gtf3a | no change with or without drug | 0.67 | 1.52 | -0.22 | 1
Ehd4 | no change with or without drug | 0 | 1.18 | -0.67 | 0.94
Kcna2 | no change with or without drug | -0.67 | 0.34 | -0.79 | 0.88
St6galnac5 | no change with or without drug | 0 | -0.67 | 0.56 | 0.94
Or3a1 | no change with or without drug | 0.9 | 0.67 | 0.56 | 1.02
A330070K13Rik | no change with or without drug | -0.67 | -0.51 | -0.22 | 0.88
Bbs4 | low cell count with doxorubicin only (active) | -2.36 | -0.51 | -2.14 | 0.73
Rnf212 | no change with or without drug | -0.9 | 0.84 | -1.35 | 0.86
Ackr1 | no change with or without drug | -0.34 | -0.51 | 0.11 | 0.91
Plekhb2 | no change with or without drug | 0 | -0.17 | 0.22 | 0.94
Trav7d-6 | no change with or without drug | -1.35 | -0.17 | -1.24 | 0.82
A430072C10Rik | no change with or without drug | -1.12 | 1.85 | -2.14 | 0.84
Cd160 | high cell count without drug only | 1.8 | 2.87 | 0 | 1.1
Ppp1r12a | no change with or without drug | 0.56 | 0.17 | 0.56 | 0.99
Gtf3c6 | low cell count without drug only | 0.22 | -3.71 | 3.82 | 0.96
Qrfprl | no change with or without drug | 0 | 0.34 | -0.11 | 0.94
1700018B24Rik | no change with or without drug | -0.22 | 1.18 | -0.9 | 0.92
Arhgap39 | no change with or without drug | 0 | -0.84 | 0.67 | 0.94
Taf10 | no change with or without drug | -1.12 | -0.84 | -0.56 | 0.84
Mios | no change with or without drug | 1.46 | -1.18 | 2.7 | 1.07
Ndufs2 | low cell count without drug only | 0.79 | -2.19 | 2.81 | 1.01
Krtap6-2 | no change with or without drug | 0.34 | 0.84 | -0.11 | 0.97
Arih1 | no change with or without drug | -0.56 | -1.52 | 0.56 | 0.89
Rexo4 | no change with or without drug | 0.22 | -0.51 | 0.67 | 0.96
Ctsj | no change with or without drug | 0.67 | 0.67 | 0.34 | 1
Pip4k2a | no change with or without drug | -0.22 | 0.34 | -0.34 | 0.92
Mab21l4 | no change with or without drug | -1.35 | 1.01 | -1.91 | 0.82
Dsg1c | no change with or without drug | 0.11 | 1.01 | -0.45 | 0.95
Map4k5 | low cell count with doxorubicin only (active) | -2.02 | -1.85 | -0.9 | 0.76
Map4k5 | no change with or without drug | -0.45 | 1.18 | -1.12 | 0.9
Mdn1 | no change with or without drug | -0.45 | 0.67 | -0.79 | 0.9
Or13a26 | no change with or without drug | 1.35 | 1.52 | 0.45 | 1.06
Mcm10 | no change with or without drug | -1.35 | 0.17 | -1.46 | 0.82
Vmn1r67 | no change with or without drug | -1.01 | -0.51 | -0.67 | 0.85
R3hdm2 | no change with or without drug | 1.01 | 0.51 | 0.79 | 1.03

No new results follow: an excerpt of the list.
gene symbol | combined z-score class | viability z-score with doxorubicin | viability z-score without drug | z-score of drug to no-drug ratio | doxorubicin viability vs non-targeting
Elovl4 | no change with or without drug | 0 | 0.17 | 0 | 0.94
Bzw2 | no change with or without drug | 0.67 | -0.17 | 0.9 | 1
